{"source": "patent US10646478B2", "about": "“Methods for treatment of melanoma” (CHILDREN'S MEDICAL CENTER CORPORATION, priority 2011, dated 2020)", "key": {"[1]": {"system": "crestin+ neural crest progenitors", "assay": "In situ hybridization (ISH) for crestin in zebrafish embryos (chemical screen for suppressors of neural crest development)", "format": "in vivo", "details": "50% epiboly to 24 hpf", "experimental": "The screen was performed essentially as previously described^31. In brief, WT embryos were collected, staged and then plated at a density of 10 embryos per well in a […] tissue culture plate in 200 ul of E3 water. At 50% epiboly, 100 ul of a 3× chemical stock was added to each well using a Hamilton liquid handling robot, yielding a final 1× concentration. For the majority of the chemicals in the library, this yielded a concentration of ˜33 uM. The libraries used were the BIOMOL 480, Sigma LOPAC 1280, and selected additional compounds obtained through the Children's Hospital Boston Chemical Screening facility. Compounds known to affect pigmentation in Xenopus were obtained from a screen previously described^32, 33. After treatment, embryos were rinsed in E3 water, pronase treated to remove chorions, washed 4× in E3 and 1× in PBT, and then fixed in 4% PFA for 24 hours. Fixed embryos were changed to 100% methanol 24 h later, and kept until the time of ISH.\nEmbryos underwent automated ISH using a Biolane HTI robot with a crestin riboprobe as previously described^31. All wells were manually scored by eye, assigning a score within a range of 1 (no crestin staining) to 3 (no change in crestin) to 5 (marked increase in crestin). Note was also taken of chemicals that affected migratory patterns in both A-P and D-V directions, and overall morphology. […]"}, "[2]": {"system": "neural crest stem cells (NCSCs) from fetal (E14.5) rat gut", "assay": "Rat neural crest stem cell assays (self-renewal, colony size, differentiation)", "format": "cell-based", "experimental": "Enteric NCSCs from the fetal (E14.5) rat gut were isolated using flow cytometry to select the 1%-2% of cells expressing the highest levels p75 and α4 integrin as previously described^9. Cells were plated at clonal density in two wells/treatment and cultured in self-renewal medium for 8 days in LEF, A771726 or the vehicle (DMSO) followed by differentiation medium+/−LEF, A771726 or DMSO for 6 days. Cultures were fixed in 4% PFA then stained with antibodies against peripherin, GFAP, and SMA to identify neurons (N), glia (G) and myofibroblasts (M) respectively (U=unstained cells). A total of 3 to 4 independent experiments were performed, and differences measured by ANOVA followed by Bonferonni posthoc comparison. […] Differences between groups were calculated using ANOVA followed by posthoc Sheffe.\nDissociated fetal rat gut cells were plated at clonal density in non-adherent conditions in self-renewal medium with LEF, a77 or DMSO for 10 days^10. […] Dissociated cells from each neurosphere were re-plated in non-adherent conditions without LEF or a77 and after 10 days, the number of secondary neurospheres were counted and compared. […] A total of 5 independent experiments were analyzed, and the number of multipotent secondary neurospheres on a given day are normalized to the DMSO control wells, and differences calculated by ANOVA."}, "[3]": {"system": "human melanoma cell lines (A375, Hs.294t, RPMI7951)", "assay": "In vitro melanoma proliferation assay (CellTiterGlo)", "format": "cell-based", "experimental": "(§1) Human melanoma cell lines (A375, RPMI7951, Hs.294T, MAMLE-3M) were obtained from the American Type Culture Collection. The 8988 cell line was provided by Alec Kimmelman at Dana Farber, and the PANC1 and MDA-231-MB lines were provided by Rania Hartouche at Harvard. Cells were cultured in DMEM/10% FCS at 37 C, 5% CO2. For proliferation assays, 96-well clear bottom plates were used to plate cells at a density of 5,000 cells/well (RPMI7951 and A375) or 10,000 cells/well (MAMLE-3M-3M and Hs.294T) in 100 ul containing indicated concentrations of A771726 or PLX4720 or DMSO. All conditions were tested in triplicate. Media was changed at day 2, and proliferation rate was measured at day 4 using the CellTiterGlo assay kit (Promega). All values are expressed are the % of luciferase relative to the DMSO control well. Differences between groups were statistically analyzed using a generalized linear ANOVA model taking into account factors of PLX4720, A771726 and dose. IC50's were calculated using a log-logistic model."}, "[4]": {"system": "pancreatic cancer (8988, PANC1) and breast cancer (MDA-MD-231) cell lines", "assay": "In vitro proliferation assay in non-melanoma cell lines", "format": "cell-based, human", "details": "BRAF WT; 8988, PANC1, MDA-MD-231", "experimental": "as §1"}}, "note": "At least one compound was matched to its structure with a doubt left.", "data": [{"smiles": "C/C(O)=C(\\C#N)C(=O)Nc1ccc(C(F)(F)F)cc1", "note": "[A771726, teriflunomide]", "values": [{"measurement": "crestin expression by ISH", "setting": "[1]", "result": "reduction in expression of the neural crest"}, {"measurement": "differentiation or survival of specific progeny", "setting": "[2]", "result": "no effect on differentiation or survival of specific progeny"}, {"measurement": "proliferation of human melanoma cell lines", "setting": "[3]", "result": "dose-dependent decrease in proliferation"}, {"measurement": "proliferation of non-melanoma cell lines", "setting": "[4]", "result": "mild antiproliferative activity but was less potent in these cells"}]}]}
